This list was built around the results that the source calls inconclusive (neither active nor inactive); the mix of calls is not that of the screen. Potencies of inconclusive entries are doubtful fits and often do not repeat. Active and inactive are the calls of the source. The call rests on the fitted dose curve; in most records, active means well fitted cell-killing curve with a large enough effect; inconclusive means small, poorly fitted or top-dose-only effect; inactive means flat fitted curve, though single readings scatter.
Test: Viability qHTS for inhibitors of the SERCaMP assay screened against the NCATS CANVASS Library (AID 1347400); further: nearly all actives have a fitted effect of over 70% in size
Settings: SH-SY5Y SERCaMP cells viability, CellTiter-Glo, 48 h; series mostly up to 92.2 µM; activity change, negative = cytotoxicity: at the top concentration
Excerpt: Natural products and their derivatives continue to be wellsprings of nascent therapeutic potential. However, many laboratories have limited resources for biological evaluation, leaving their previously isolated or synthesized compounds largely or completely untested. To address this issue, the Canvass library of natural products was assembled (https://tripod.nih.gov/canvass), in collaboration with academic and industry researchers, for quantitative high-throughput screening (qHTS) across a diverse set of cell-based and biochemical assays. The pure (>85% purity by liquid chromatography/mass spectrometry [LC/MS]) Canvass library of 346 natural products were submitted by 45 academic laboratories and companies around the world. We collected pure natural products to circumvent deconvolution and structure elucidation due to time and resource limitations. The library was formatted into 1536-well plates and evaluated in 50 qHTS (in an 11-pnt concentration series) bioassays with broad scope of disease-relevant mechanisms. The resulting data set from 50 different assays was then systematically analyzed to identify overall trends and specific natural products with interesting biological activities. Reported herein are the results of each individual qHTS and their corresponding assay protocol. Cytotoxic compounds are expected to interfere with the SERCaMP assay, and these are identified using a CellTiter-Glo viability assay. National Center for Advancing Translational Sciences (NCATS), Rockville, MD National Institute of Health (NIH), Bethesda, Maryland
SERCaMP Viability assay protocol: 1. In a white-solid bottom 1536-well tissue culture plate (Corning 7494), 5 uL of SH-SY5Y-GLuc SERCaMP MJH297 derived cells were dispensed using a Multidrop Combi (Thermo Fisher Scientific) at a final concentration of 1000 cells / well. 2. The assay plates were incubated for 4 hours at 37C, 5% CO2, 95% humidity. 3. […] of compounds (in DMSO; columns 5-48), and positive control Bortezomib (1 mM; 1:2 dilution; 16-points; n = 2; column 2, rows 1-32) were pin transferred into the assay plates using the Kalypsis pin tool (Wako USA) equipped with a 1536-well pin heads. This yields a final concentration range of 0.0001 - 4.6 uM for the Bortezomib and 0.001 - 77 uM for the compounds. 4. The assay plates were incubated for 48 hours at 37C, 5% CO2, 95% humidity. 5. After incubation, 3 uL of CellTiterGlo reagent (Promega) was dispensed into each wells. 6. The plates were centrifuged for 15 seconds at 1000 rpm. 7. Luminescence signal was obtained via the ViewLux plate reader (Perkin Elmer) using the clear emission filter and 1x binning, 2 seconds exposure settings.
On the % scale 0 is the no-effect control and ±100 the full control effect; potency means the concentration at half of the fitted maximal effect.

Row | SMILES | Potency | activity change, negative = cytotoxicity
1 | COc1ccc2c3c([nH]c2c1)C(C)=NCC3 | inconclusive: 42.8 µM [cytotoxic, partial curve, poor fit] | 
2 | c1ccc2nc3c(cc2c1)[nH]c1ccccc13 |  | inactive: -25.1%
3 | CO[C@H]([C@@H](C)[C@H]1O[C@]1(C)C[C@H](C)/C=C/C=C(\C)[C@H]1O[C@@H](CC(=O)O)CC[C@@H]1C)[C@@H](C)O | active: 0.048 µM | 
4 | CCC(=O)CCCCC[C@@H]1NC(=O)[C@H]2CCCCN2C(=O)[C@H]([C@@H](C)CC)NC(=O)[C@H](Cc2cn(OC)c3ccccc23)NC1=O | active: 3.81 µM | 
5 | CC[N@@+]1([O-])C[C@]2(C)CC[C@@H](O)[C@@]34C5C[C@H]6CC[C@@]5(C(C[C@H]23)C41)[C@H](O)[C@@]6(O)CO (stereo partly drawn) |  | inactive: 4.14%
6 | C/C=C(\C)C(=O)O[C@@H]1[C@@H](O)[C@@H]2O[C@H]3[C@H](O[C@@H](CCCCC)CCCCCCC(=O)CCC(=O)OC[C@@H](O2)[C@H]1OC(=O)/C=C/c1ccccc1)O[C@H](C)[C@H](OC(C)=O)[C@@H]3O | inconclusive: 1.91 µM [cytotoxic, partial curve] | 
7 | CCCCC[C@@H]1OC(=O)[C@@H](C)N(C)C(=O)[C@H](CCCCC)OC(=O)C(C)N(C)C(=O)[C@H](CCCCC)OC(=O)[C@@H](C)N(C)C(=O)[C@H](CCCCC)OC(=O)C(C)N(C)C1=O (stereo partly drawn) | active: 38.1 µM | 
8 | C=C1[C@@H](C)[C@H]2[C@H](Cc3ccccc3)NC(=O)[C@]23OC(=O)/C=C/[C@H](O)CCC[C@@H](C)C/C=C/[C@H]3[C@@H]1O | inconclusive: 3.4 µM [cytotoxic, full curve] | 
9 | C=C(C)[C@H]1C(=O)c2c3c(cc4c5c(n1c24)[C@@]1(C)[C@@H](CC[C@H]2[C@](C)(/C=C/C=C(\C)C(=O)O)[C@@H](O)CC[C@@]21C)C5)C1=CC(C)(C)OC(C)(C)[C@H]1[C@@H]3O | inconclusive: 42.8 µM [cytotoxic, partial curve] | 
10 | COC1C(O)C(C)OC(OC2C(Oc3cccc4c(O)c5c(=O)oc6ccc(C)c7c(=O)oc(c34)c5c67)OC(C)C(O)C2O)C1O (stereo not drawn) | active: 34 µM | 
11 | C1=C2CCCN[C@H]2C2CC1[C@H]1CCCCN1C2 (stereo partly drawn) | inconclusive: 12 µM [cytotoxic, partial curve] | 
12 | CO[C@@H](/C=C/CC/C=C/C(=O)O)[C@@H](O)[C@H](C)/C=C(\C)[C@H](O)[C@H](C)C(=O)CCCC1CC(=O)NC(=O)C1 |  | inactive: 23.4%
13 | CC[C@]12C=CCN3CC[C@]4(C(=C(C(=O)OC)C1)Nc1ccccc14)[C@@H]32 | inconclusive: 48 µM [cytotoxic, single point] | 
14 | C/C=C1/CN2CC[C@]34C(=C(C(=O)OC)[C@H]1C[C@H]23)Nc1ccccc14 | inconclusive: 30.3 µM [cytotoxic, partial curve] | 
15 | C[C@]12CC(O)C3[C@@H](CCC4C[C@@H](O)CC[C@@]43CO)[C@@]1(O)CC[C@@H]2C1=CC(=O)OC1 (stereo partly drawn) | active: 13.5 µM | 
16 | CCC[C@H]1CC[C@H]2[C@H](C)CCC[C@H]2N1 |  | inactive: 3.68%
17 | COc1ccc2[nH]cc(CCN)c2c1 | inconclusive: 67.8 µM [cytotoxic, partial curve, poor fit] | 
18 | C[C@]12CC(O)C3[C@@H](CC[C@@H]4C[C@@H](O)CC[C@]34CO)[C@@]1(O)CC[C@@H]2C1=CC(=O)OC1 (stereo partly drawn) | active: 7.6 µM | 

2 of the compounds above, in markdown:

| Row | SMILES | Potency | activity change, negative = cytotoxicity |
| --- | --- | --- | --- |
| 12 | CO[C@@H](/C=C/CC/C=C/C(=O)O)[C@@H](O)[C@H](C)/C=C(\C)[C@H](O)[C@H](C)C(=O)CCCC1CC(=O)NC(=O)C1 |  | inactive: 23.4% |
| 17 | COc1ccc2[nH]cc(CCN)c2c1 | inconclusive: 67.8 µM [cytotoxic, partial curve, poor fit] |  |
